Data source: PubChem BioAssay AID1671195 (Yale University, 2021)
Aim: 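Knockdowns that increase or decrease uptake of fluorescent LDL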 (primary screen). Cell system: human Huh7 hepatoma cells. Reagent: siRNA pool against human genes, 18 nM. Duration: about 2 to 2.5 days of knockdown, then 8 h LDL uptake. Challenge: DiI-labelled LDL at 30 µg/ml for 8 h, in lipoprotein-deficient serum medium. Detection: 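Per-cell DiI-LDL intensity by automated imaging; well means scaled to the plate median and given as a robust z-score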. Scale: robust z-score: higher = more LDL uptake after knockdown. Hit rule: 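a gene counts as active if at least two replicate z-scores exceed ±2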.
Shown is one part, drawn at random, of about 22,000 deposited reagents. Of all reagents, about 1,510 (6.9%) were called active. 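Active includes knockdowns raising or lowering LDL uptake; positive z-scores mean more uptake, negative mean less.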 No sequences are given here.

no.	target gene	PubChem SID	robust z-score, replicate 1	robust z-score, replicate 2	robust z-score, replicate 3	Outcome
1	CNNM1	SID442891173	1.82	-0.362	-0.495	inactive
2	RBM4	SID442904603	-2.04	-1.51	-1.68	inactive
3	IRF2BPL	SID442896432	-0.721	-0.337	0.239	inactive
4	NTRK1	SID442901309	-0.771	-0.639	-1.23	inactive
5	RNASEL	SID442901263	-0.599	-0.589	-1.43	inactive
6	FOXRED1	SID442892155	-0.332	0.582	0.356	inactive
7	MROH7	SID442903990	-1.42	-1.47	-1.48	inactive
8	PDCD1	SID442900469	-0.408	-1.64	-0.247	inactive
9	LOC284397 (retired record)	SID442887172	1.09	0.791	1.02	inactive
10	SERGEF	SID442891051	0.91	0.01	0.0912	inactive
11	LOC442407 (retired record)	SID442903310	-1.51	-1.04	-1.26	inactive
12	ZBTB10	SID442902976	-1.1	-1.13	-1.34	inactive
13	KDM4C	SID442883097	7.51	6.82	7.67	active
14	LOC390146 (retired record)	SID442898490	-0.478	-0.348	-0.688	inactive
15	NEK6	SID442901217	-0.747	-1.17	-0.686	inactive
16	ARL5B	SID442898499	-0.758	-0.162	-0.599	inactive

Continued; the last 4 above are carried over.
no.	target gene	PubChem SID	robust z-score, replicate 1	robust z-score, replicate 2	robust z-score, replicate 3	Outcome
13	KDM4C	SID442883097	7.51	6.82	7.67	active
14	LOC390146 (retired record)	SID442898490	-0.478	-0.348	-0.688	inactive
15	NEK6	SID442901217	-0.747	-1.17	-0.686	inactive
16	ARL5B	SID442898499	-0.758	-0.162	-0.599	inactive
17	PAFAH1B2	SID442886299	1	1.64	0.953	inactive
18	SLC2A1	SID442901898	-0.966	-0.991	-0.981	inactive
19	QTGAL	SID442899068	-1.17	0.233	-0.784	inactive
20	BRINP3	SID442902565	-0.984	-1.21	-1.12	inactive
21	LOC441333 (retired record)	SID442903362	-1.1	-1.57	-1.17	inactive
22	NMRAL2P	SID442901923	-0.919	-0.879	-1.15	inactive
23	RNF32-DT	SID442892791	-0.202	0.688	-0.116	inactive
24	MAPK10	SID442891379	0.139	0.506	0.236	inactive
25	MADD	SID442889711	0.626	0.927	0.00348	inactive
26	VPS37A	SID442894442	-0.453	0.227	0.0338	inactive
27	SLEAR	SID442893757	-0.0686	0.0292	0.0799	inactive
28	DNAJC1	SID442887522	1.09	0.756	0.84	inactive
